# Data from paper PMC8379256, “A xanthene derivative, DS20060511, attenuates glucose intolerance by inducing skeletal muscle-specific GLUT4 translocation in mice” (Communications Biology, 2021).
# Values joined by “and” are separate entries in the source; they are usually repeats but may differ in a detail not shown here. Equal values may be shown once.
# Columns and labels:
# db/db mice = assay: Repeated (28-day) DS20060511 treatment of db/db mice; assay type: in vivo, mouse; conditions: 10 mg/kg
# Experimental: db/db mice were acclimatized to a 6 h restricted feeding pattern from 10 am to 4 pm prior to the start of the experiment. For 28 days from 6 weeks of age, the mice received oral administration of 10 mg kg^−^1 of DS20060511 or vehicle once a day, 15 min prior to their feeding. On day 1 and day 28, the blood glucose levels were measured between 10 am to 4 pm. Blood glucose levels were measured using Glutest Every in blood samples collected from the tail vein. Daily food intake was monitored throughout the study, and the body weight, blood glucose, and plasma insulin were measured on day 1 and day 28. The hemoglobin A1c (HbA1c) level was also measured with a HLC-723G8 Automated Glycohemoglobin Analyzer on day 1 and day 28 (Tosoh, Tokyo, Japan). The triceps surae muscle (skeletal muscle), heart, epididymal WAT, and liver were excised immediately after euthanasia, and the tissue weights were measured on day 29. The glycogen contents of the muscle, heart, and liver were measured as described previously,[52] with some modifications. In brief, each tissue sample (50–100 mg) was weighed and boiled in 0.75 mL of 8 M KOH. After cooling, 0.25 mL of 1 M Na2SO4, followed by 2 mL of 99.5% ethanol, was added to precipitate the glycogen. The samples were centrifuged and the glycogen precipitates were dissolved in distilled water. Glycogen was degraded to glucose by treatment with amyloglucosidase (Sigma–Aldrich) at 55 °C for 60 min, and the glucose concentration was determined with Glucose CII Test Wako (FUJIFILM Wako Pure Chemical).
# C57BL/6 mice = assay: Indirect calorimetry and exercise endurance under stepwise treadmill running; assay type: in vivo, mouse; conditions: exercise tolerance test, 30 mg/kg, individual mice
# Experimental: The mice were acclimatized to the treadmill by allowing them to run at 10 m min^−1 for 10 min on the day before the test. On the day of the test, the mice received oral administration of 30 mg kg^−1 of DS20060511 or vehicle 15 min before they were made to run. The treadmill was started at a velocity of 10 m min^−1, with the speed increased stepwise by 2 m min^−1 every 3 min, to assess the exercise endurance capacity as described previously. Measurements of the oxygen consumption (VO2) and exhaled carbon dioxide (VCO2) under treadmill running were conducted with the ARCO-2000 magnetic-type mass spectrometric calorimeter (ARCO System, Kashiwa, Japan) connected to the treadmill chamber (MB-2000, ARCO System). The RER was calculated as the VCO2/VO2 ratio and the substrate utilization rates were calculated using Frayn’s formula[51]: rate of glucose oxidation = 4.585VCO2 − 3.226VO2; rate of fat oxidation = 1.695VO2 − 1.701VCO2. The exercise endurance capacity under treadmill running was determined by measuring the time from the start to the time until the mice ceased to run because of exhaustion, which was defined as remaining on the shocker plate for more than 10 sec. Immediately after the exercise, the blood glucose and lactate levels were measured using Glutest Every and Lactate Pro2 (ARKRAY, Kyoto, Japan), respectively, in blood samples collected from the tail vein.
structure (smiles),measurement,setting,value
COc1ccc2c(C)c(C(=O)O)ccc2c1C1C2=C(CC(C)(C)CC2=O)OC2=C1C(=O)CC(C)(C)C2 [DS20060511],Food intake (g) Accumulated,db/db mice; accumulated,674.8 g
same,Food intake (g) Average,db/db mice; average,4.02 g
same,Glycogen (mg/g tissue) Heart,"db/db mice; heart, individual animals",0.31 mg/g tissue and 0.62 mg/g tissue and 0.11 mg/g tissue and 0.14 mg/g tissue and 0.08 mg/g tissue and 0.09 mg/g tissue
same,Glycogen (mg/g tissue) Liver,"db/db mice; liver, individual animals",1.51 mg/g tissue and 1.75 mg/g tissue and 1.68 mg/g tissue and 1.59 mg/g tissue and 1.18 mg/g tissue and 1.74 mg/g tissue
same,Glycogen (mg/g tissue) Muscle,"db/db mice; muscle, individual animals",0.30 mg/g tissue and 0.93 mg/g tissue and 0.60 mg/g tissue and 0.75 mg/g tissue and 0.88 mg/g tissue
same,Blood lactate,C57BL/6 mice,6.9 nmol/L and 6.5 nmol/L and 5.9 nmol/L and 6.7 nmol/L and 5.7 nmol/L and 7.5 nmol/L and 9.9 nmol/L
same,Time until exhaustion,C57BL/6 mice,47 min and 41 min and 50 min and 42 min and 44 min (2×) and 34 min
